In US20140287513:

What was measured:
[1] = test system: piggyBac transposase R275A/R277A (Trichoplusia ni); assay: enzyme reaction in vitro; conditions: slightly decreased hairpin resolving; target joining defective; purified recombinant protein; protein details: C-terminal His-tag (pET22b); label: 5'-32P; folded or branched DNA
[2] = test system: piggyBac transposase R341A (Trichoplusia ni); assay: enzyme reaction in vitro; conditions: slight decrease in hairpin resolving and target joining; purified recombinant protein; protein details: C-terminal His-tag (pET22b); label: 5'-32P; folded or branched DNA
[3] = test system: piggyBac transposase R388A (Trichoplusia ni); assay: enzyme reaction in vitro; conditions: dramatic decrease in hairpin opening; target joining defective; purified recombinant protein; protein details: C-terminal His-tag (pET22b); label: 5'-32P; folded or branched DNA
[4] = test system: piggyBac transposase WT (Trichoplusia ni); assay: enzyme reaction in vitro; conditions: hairpin resolving; reference; purified recombinant protein; protein details: C-terminal His-tag (pET22b); label: 5'-32P; folded or branched DNA
[5] = test system: piggyBac transposase R372A/K375A (Exc+Int-) (Trichoplusia ni); assay: enzyme reaction in vitro; conditions: better hairpin resolving than WT; target joining defective; purified recombinant protein; protein details: C-terminal His-tag (pET22b); label: 5'-32P; folded or branched DNA
[6] = test system: piggyBac transposase S351E (Trichoplusia ni); assay: enzyme reaction in vitro; conditions: slightly decreased hairpin resolving; target joining defective; purified recombinant protein; protein details: C-terminal His-tag (pET22b); label: 5'-32P; folded or branched DNA
[7] = test system: piggyBac transposase R245A (Trichoplusia ni); assay: enzyme reaction in vitro; conditions: slight decrease in hairpin resolving and target joining; purified recombinant protein; protein details: C-terminal His-tag (pET22b); label: 5'-32P; folded or branched DNA
[8] = test system: piggyBac transposase WT (Trichoplusia ni); assay: activity assay; conditions: strand transfer assay; reference; purified recombinant protein; protein details: C-terminal His-tag (pET22b); label: 5'-32P on both strands

| Sequence | activity on this sequence [1] | activity on this sequence [2] | activity on this sequence [3] | activity on this sequence [4] | activity on this sequence [5] | activity on this sequence [6] | activity on this sequence [7] | activity on this sequence [8] |
| --- | --- | --- | --- | --- | --- | --- | --- | --- |
| CATGCGTCAATTTTACGCAGACTATCTTTCTAGGGTTAACCCTAGAAAGATAGTCTGCGTAAAATTGACGCATG [piggyBac end oligo with TTAA hairpin (PGB40)] | less active | less active | less active | active | active | less active | less active |  |
| CCCTAGAAAGATAATCATATTGTGACGTACGTTAAAGATAATCATGCGTAAAATTGACGCATGTGTTTT / TTAAAACACATGCGTCAATTTTACGCATGATTATCTTTAACGTACGTCACAATATGATTATCTTTCTAGGG [piggyBac R-end duplex PGB18/PGB19] |  |  |  |  |  |  |  | active |

The exact form of at least one protein or probe is not confirmed. For some assays here: The comparison behind a weaker result is the experiment's own reference, which may not be listed here.
